Data as given in the supplement of paper PMC6411743.
± gives the standard deviation of the averaged measurements. This is a selection; strong and weak results do not stand in their true shares. Most entries show no effect beyond the scatter of the controls.

Amino acid sequences for entries named in this document (tags omitted). A change or cut given only in a name is not applied to a line headed by its entry.
UniProt O60784, whole entry: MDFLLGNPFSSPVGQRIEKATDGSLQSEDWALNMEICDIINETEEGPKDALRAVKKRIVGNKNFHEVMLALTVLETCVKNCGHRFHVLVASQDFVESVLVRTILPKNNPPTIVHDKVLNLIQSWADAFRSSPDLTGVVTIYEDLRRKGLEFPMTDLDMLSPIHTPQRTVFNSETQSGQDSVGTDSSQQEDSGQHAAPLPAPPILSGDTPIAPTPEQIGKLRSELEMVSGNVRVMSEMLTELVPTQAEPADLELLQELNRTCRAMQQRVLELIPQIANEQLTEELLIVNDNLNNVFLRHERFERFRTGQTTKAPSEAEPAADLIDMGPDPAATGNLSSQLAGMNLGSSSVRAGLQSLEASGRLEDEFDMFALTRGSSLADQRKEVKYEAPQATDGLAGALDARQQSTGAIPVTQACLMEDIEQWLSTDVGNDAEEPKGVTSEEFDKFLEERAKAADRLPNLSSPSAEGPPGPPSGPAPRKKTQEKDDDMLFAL
UniProt O75323: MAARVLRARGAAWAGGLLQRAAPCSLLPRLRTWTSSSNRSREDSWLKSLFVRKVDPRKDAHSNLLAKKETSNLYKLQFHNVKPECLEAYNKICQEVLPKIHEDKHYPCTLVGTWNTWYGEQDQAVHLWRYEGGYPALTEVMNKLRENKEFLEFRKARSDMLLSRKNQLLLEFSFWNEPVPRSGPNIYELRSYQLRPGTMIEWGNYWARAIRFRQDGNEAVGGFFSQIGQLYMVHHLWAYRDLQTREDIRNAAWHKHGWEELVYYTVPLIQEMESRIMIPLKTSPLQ
UniProt O95400: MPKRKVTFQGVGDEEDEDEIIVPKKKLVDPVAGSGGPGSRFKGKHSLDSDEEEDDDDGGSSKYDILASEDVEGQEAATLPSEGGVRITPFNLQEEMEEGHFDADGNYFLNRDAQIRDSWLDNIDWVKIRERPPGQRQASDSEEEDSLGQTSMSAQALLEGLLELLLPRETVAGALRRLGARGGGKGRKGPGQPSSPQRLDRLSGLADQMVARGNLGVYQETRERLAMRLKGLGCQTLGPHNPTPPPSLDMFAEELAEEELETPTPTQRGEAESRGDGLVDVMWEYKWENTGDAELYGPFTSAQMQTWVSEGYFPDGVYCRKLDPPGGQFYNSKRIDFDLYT
UniProt O95544: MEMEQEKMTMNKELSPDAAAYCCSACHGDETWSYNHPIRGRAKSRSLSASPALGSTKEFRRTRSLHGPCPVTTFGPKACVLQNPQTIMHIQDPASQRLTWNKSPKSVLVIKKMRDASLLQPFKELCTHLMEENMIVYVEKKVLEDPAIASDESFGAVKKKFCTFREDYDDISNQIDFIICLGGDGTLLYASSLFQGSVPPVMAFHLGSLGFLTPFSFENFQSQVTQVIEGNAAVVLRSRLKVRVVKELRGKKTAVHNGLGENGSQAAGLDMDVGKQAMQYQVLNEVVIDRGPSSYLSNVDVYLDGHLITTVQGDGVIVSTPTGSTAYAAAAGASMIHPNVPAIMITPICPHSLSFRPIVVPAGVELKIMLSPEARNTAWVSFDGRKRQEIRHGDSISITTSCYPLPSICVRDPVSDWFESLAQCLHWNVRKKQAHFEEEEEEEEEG
UniProt O95239: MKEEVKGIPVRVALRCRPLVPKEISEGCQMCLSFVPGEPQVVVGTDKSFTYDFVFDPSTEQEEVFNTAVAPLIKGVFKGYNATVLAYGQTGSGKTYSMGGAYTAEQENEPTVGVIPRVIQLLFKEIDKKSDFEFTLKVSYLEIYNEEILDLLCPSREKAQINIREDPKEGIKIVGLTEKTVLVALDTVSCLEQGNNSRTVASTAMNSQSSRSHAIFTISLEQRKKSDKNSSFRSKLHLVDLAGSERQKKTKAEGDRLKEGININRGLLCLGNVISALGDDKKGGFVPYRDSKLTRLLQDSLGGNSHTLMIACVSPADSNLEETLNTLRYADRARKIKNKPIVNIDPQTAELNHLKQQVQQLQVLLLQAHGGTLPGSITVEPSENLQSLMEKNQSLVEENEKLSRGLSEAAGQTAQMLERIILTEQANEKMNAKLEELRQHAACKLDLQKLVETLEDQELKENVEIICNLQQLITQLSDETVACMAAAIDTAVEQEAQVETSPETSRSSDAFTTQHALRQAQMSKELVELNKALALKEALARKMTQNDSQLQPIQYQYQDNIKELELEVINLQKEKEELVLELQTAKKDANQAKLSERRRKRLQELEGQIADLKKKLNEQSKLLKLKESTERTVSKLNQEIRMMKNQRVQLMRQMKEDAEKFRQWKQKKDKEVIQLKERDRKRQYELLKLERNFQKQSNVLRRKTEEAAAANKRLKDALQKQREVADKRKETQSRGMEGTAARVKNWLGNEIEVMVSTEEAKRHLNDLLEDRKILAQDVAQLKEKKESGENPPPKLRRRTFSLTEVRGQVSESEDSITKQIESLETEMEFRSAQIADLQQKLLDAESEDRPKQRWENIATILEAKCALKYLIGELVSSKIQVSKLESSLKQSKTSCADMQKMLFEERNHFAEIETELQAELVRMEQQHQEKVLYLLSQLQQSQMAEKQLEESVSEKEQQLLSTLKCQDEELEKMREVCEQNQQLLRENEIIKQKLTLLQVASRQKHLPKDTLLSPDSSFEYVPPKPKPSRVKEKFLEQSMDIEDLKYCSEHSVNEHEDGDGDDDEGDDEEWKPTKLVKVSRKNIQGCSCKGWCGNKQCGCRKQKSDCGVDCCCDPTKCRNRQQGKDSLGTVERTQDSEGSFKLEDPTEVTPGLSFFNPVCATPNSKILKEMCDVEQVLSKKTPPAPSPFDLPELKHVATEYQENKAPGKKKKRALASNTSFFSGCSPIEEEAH
UniProt O75151: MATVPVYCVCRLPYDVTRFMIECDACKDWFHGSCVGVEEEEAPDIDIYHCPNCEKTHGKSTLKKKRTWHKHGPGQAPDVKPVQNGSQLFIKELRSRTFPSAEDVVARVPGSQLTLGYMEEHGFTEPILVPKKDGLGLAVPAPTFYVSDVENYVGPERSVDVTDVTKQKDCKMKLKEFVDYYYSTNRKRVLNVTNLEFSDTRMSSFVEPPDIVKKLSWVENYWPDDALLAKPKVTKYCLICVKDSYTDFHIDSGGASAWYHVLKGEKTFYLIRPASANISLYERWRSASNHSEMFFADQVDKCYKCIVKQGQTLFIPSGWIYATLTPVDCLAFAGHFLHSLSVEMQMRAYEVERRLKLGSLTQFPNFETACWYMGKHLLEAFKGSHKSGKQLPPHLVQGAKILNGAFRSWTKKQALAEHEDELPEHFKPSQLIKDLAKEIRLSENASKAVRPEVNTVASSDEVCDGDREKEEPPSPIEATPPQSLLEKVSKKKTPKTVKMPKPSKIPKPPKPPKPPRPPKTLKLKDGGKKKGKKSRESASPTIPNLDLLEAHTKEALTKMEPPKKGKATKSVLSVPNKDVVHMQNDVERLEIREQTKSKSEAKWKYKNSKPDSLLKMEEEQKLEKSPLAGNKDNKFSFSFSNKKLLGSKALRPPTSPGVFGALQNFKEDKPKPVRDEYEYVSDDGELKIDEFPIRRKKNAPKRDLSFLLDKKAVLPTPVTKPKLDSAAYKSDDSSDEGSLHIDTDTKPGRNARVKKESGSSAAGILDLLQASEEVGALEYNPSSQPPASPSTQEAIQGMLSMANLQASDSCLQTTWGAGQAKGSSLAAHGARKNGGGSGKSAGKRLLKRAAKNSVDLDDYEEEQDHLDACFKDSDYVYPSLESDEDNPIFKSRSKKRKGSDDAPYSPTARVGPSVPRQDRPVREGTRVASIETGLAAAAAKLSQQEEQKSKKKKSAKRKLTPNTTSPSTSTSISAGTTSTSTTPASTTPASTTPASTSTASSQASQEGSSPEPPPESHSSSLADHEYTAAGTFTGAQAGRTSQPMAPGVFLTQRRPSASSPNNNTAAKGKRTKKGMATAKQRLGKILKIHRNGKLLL
UniProt O60271: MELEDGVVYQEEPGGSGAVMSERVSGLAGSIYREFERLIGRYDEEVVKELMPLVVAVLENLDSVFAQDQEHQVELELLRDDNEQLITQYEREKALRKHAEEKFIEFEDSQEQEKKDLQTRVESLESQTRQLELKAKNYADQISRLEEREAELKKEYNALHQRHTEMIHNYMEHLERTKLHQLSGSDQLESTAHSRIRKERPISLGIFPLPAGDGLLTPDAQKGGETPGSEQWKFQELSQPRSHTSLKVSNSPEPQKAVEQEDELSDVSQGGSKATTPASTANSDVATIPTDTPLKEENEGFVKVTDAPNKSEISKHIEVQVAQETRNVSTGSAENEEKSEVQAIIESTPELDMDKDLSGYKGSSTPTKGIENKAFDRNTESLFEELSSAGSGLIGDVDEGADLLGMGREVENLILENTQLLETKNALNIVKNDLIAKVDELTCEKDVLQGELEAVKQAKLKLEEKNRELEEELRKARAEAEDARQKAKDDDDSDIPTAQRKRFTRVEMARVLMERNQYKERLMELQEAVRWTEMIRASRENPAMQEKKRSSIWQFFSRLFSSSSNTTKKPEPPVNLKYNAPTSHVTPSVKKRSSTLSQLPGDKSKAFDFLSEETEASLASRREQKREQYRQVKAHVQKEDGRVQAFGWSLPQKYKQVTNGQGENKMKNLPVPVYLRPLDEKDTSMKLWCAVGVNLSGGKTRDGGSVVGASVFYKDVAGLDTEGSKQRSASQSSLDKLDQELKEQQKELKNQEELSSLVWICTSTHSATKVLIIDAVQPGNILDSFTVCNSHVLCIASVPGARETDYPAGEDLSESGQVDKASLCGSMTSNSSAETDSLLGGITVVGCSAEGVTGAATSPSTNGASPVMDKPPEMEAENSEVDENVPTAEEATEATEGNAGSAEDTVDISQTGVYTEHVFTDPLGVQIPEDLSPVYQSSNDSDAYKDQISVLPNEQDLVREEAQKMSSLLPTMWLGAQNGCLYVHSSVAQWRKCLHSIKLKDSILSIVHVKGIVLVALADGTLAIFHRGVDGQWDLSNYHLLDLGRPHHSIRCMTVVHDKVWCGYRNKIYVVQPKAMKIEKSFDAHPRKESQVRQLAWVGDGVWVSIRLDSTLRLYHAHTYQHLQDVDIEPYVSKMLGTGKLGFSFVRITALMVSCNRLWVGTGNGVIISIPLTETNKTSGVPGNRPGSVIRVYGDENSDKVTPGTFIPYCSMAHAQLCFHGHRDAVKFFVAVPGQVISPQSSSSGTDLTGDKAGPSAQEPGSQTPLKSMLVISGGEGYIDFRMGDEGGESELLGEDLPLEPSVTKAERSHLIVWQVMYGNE
UniProt O95475: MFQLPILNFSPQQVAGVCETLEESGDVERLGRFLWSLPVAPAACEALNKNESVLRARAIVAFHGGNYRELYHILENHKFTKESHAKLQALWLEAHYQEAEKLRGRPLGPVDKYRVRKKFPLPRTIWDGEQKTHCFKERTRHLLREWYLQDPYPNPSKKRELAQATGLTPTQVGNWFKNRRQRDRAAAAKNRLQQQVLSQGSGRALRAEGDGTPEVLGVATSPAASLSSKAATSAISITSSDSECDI
UniProt O75530, whole entry, looked up: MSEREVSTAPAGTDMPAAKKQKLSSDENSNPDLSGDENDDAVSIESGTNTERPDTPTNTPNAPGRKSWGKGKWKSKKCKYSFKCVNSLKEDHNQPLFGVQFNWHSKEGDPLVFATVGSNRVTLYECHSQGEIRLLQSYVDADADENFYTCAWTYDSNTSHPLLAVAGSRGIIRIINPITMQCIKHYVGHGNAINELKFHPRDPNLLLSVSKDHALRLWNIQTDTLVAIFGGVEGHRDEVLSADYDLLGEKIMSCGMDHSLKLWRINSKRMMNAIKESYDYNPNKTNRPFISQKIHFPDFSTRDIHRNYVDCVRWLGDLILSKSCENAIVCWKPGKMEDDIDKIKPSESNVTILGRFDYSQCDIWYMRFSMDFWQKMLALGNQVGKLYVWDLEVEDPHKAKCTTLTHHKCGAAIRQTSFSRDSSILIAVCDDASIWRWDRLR
UniProt O60711: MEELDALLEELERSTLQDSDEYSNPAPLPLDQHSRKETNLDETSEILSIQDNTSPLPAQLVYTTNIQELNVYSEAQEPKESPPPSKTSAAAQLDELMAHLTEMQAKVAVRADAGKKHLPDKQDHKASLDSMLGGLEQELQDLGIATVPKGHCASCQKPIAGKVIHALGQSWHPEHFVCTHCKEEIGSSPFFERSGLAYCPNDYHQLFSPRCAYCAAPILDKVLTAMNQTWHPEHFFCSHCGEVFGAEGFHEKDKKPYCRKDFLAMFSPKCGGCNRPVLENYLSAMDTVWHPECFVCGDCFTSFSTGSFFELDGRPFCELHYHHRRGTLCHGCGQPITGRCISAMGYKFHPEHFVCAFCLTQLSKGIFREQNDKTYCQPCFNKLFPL
UniProt O75558: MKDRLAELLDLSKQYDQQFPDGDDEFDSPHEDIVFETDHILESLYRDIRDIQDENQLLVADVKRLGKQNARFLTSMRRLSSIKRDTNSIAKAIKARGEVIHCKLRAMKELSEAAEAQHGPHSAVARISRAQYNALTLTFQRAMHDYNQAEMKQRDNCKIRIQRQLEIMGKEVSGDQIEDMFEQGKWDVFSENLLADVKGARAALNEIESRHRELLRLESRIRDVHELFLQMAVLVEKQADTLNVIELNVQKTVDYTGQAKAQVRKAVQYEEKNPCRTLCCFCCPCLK

Compound: Nc1ncnc2c1ncn2[C@@H]1O[C@H](COP(=O)(O)OP(=O)(O)NP(=O)(O)O)[C@@H](O)[C@H]1O [adenylyl imidodiphosphate]
Test: NP40-soluble protein abundance relative to vehicle (solubility fold change) (ratio); higher = more soluble protein in presence of AMP-PNP
In short: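 Across three independent experiments, values are fold changes against the detergent-processed vehicle for each replicate, based on vsn-normalised intensities. The samples were Jurkat crude lysate treated with eight concentrations (0.1 to 10 mM) for 10 min at room temperature and then 3 min at 37 °C. Lysate was solubilised with 0.8% NP40 and benzonase, ultracentrifuged, and the supernatant analysed by TMT-labelled LC-MS/MS.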

Target	NP40-soluble protein abundance (concentration: 0.1mM)	NP40-soluble protein abundance (concentration: 0.5mM)
UniProt O75190-2|A0A0J9YX62|O75190 and related entries	0.923 ± 0.023	0.824 ± 0.062
UniProt O94874	1 ± 0.03	0.9893 ± 0.0067
UniProt O60784 and related entries	0.994 ± 0.017	0.974 ± 0.03
LYPLA2 (UniProt O95372)	1.02 ± 0.041	1 ± 0.025
UniProt O75323	1.01 ± 0.042	1.02 ± 0.043
UniProt O75808 and related entries	1.013 ± 0.0059	0.994 ± 0.025
UniProt O60828 and related entries	0.988 ± 0.035	1.08 ± 0.05
MED14 (UniProt O60244)	0.994 ± 0.036	1 ± 0.069
UniProt O95298 and related entries	1.04 ± 0.11	1.01 ± 0.072
CD2BP2 (UniProt O95400)	0.986 ± 0.045	1 ± 0.024
NBN (UniProt O60934)	0.9702 ± 0.0058	0.992 ± 0.016
UniProt O60499 and related entries	1.04 ± 0.037	1.032 ± 0.0074
O60344 and related entries (UniProt P0DPD6)	0.999 ± 0.019	1.02 ± 0.02
NDUFA7 (UniProt O95182)	0.988 ± 0.012	1.01 ± 0.036
UniProt O75475 and related entries	0.965 ± 0.034	1.03 ± 0.035
NMT2 (UniProt O60551)	0.994 ± 0.038	1.02 ± 0.021
ATP6V1G1 (UniProt O75348)	0.98 ± 0.04	0.958 ± 0.035
SGPL1 (UniProt O95470)	1.02 ± 0.046	1.02 ± 0.081
UniProt O75367 and related entries	0.981 ± 0.01	0.969 ± 0.042
UniProt O95104 and related entries	1.06 ± 0.05	1.04 ± 0.045
SLC25A12 (UniProt O75746)	1.01 ± 0.025	1.01 ± 0.019
CPNE3 (UniProt O75131)	1 ± 0.02	1 ± 0.052
SAP30 (UniProt O75446)	1.01 ± 0.019	1.03 ± 0.056
UniProt O95671 and related entries	1.02 ± 0.033	1 ± 0.034
UniProt O76054 and related entries	0.98 ± 0.031	1.01 ± 0.068
LCMT2 (UniProt O60294)	0.957 ± 0.015	0.988 ± 0.052

Complete entries, quoted from the list:
NDUFA7 (UniProt O95182) is listed as NP40-soluble protein abundance (concentration: 0.1mM): 0.988 ± 0.012; NP40-soluble protein abundance (concentration: 0.5mM): 1.01 ± 0.036
UniProt O95671 and related entries is listed as NP40-soluble protein abundance (concentration: 0.1mM): 1.02 ± 0.033; NP40-soluble protein abundance (concentration: 0.5mM): 1 ± 0.034
O60344 and related entries (UniProt P0DPD6) is listed as NP40-soluble protein abundance (concentration: 0.1mM): 0.999 ± 0.019; NP40-soluble protein abundance (concentration: 0.5mM): 1.02 ± 0.02
SLC25A12 (UniProt O75746) is listed as NP40-soluble protein abundance (concentration: 0.1mM): 1.01 ± 0.025; NP40-soluble protein abundance (concentration: 0.5mM): 1.01 ± 0.019

Going on with the list.

Target	NP40-soluble protein abundance (concentration: 0.1mM)	NP40-soluble protein abundance (concentration: 0.5mM)
RPP14 (UniProt O95059)	0.975 ± 0.03	1.01 ± 0.043
NADK (UniProt O95544)	1.01 ± 0.03	1.02 ± 0.023
UniProt O60763 and related entries	0.993 ± 0.019	1.02 ± 0.035
MFN2 (UniProt O95140)	1.02 ± 0.045	0.991 ± 0.063
UniProt O95169 and related entries	0.999 ± 0.034	1.02 ± 0.037
SASH3 (UniProt O75995)	0.986 ± 0.017	0.994 ± 0.028
UniProt O95628-10|O95628-4|O95628-8|O95628-9|O95628 and related entries	0.994 ± 0.017	0.992 ± 0.018
CBR3 (UniProt O75828)	0.983 ± 0.023	0.991 ± 0.032
GMDS (UniProt O60547)	1.04 ± 0.027	1 ± 0.036
UniProt O95425 and related entries	0.975 ± 0.048	1.04 ± 0.02
KIN (UniProt O60870)	0.973 ± 0.017	1.004 ± 0.0095
UniProt O75419 and related entries	1.02 ± 0.023	0.979 ± 0.07
UniProt O95248-4|G5E933 and related entries	1.019 ± 0.0067	0.991 ± 0.023
UniProt O75534 and related entries	0.976 ± 0.012	0.996 ± 0.028
PCF11 (UniProt O94913)	0.997 ± 0.016	1 ± 0.031
POLR1A (UniProt O95602)	1.01 ± 0.056	0.984 ± 0.068
KBTBD11 (UniProt O94819)	0.965 ± 0.01	0.976 ± 0.013
FARS2 (UniProt O95363)	1.02 ± 0.034	1 ± 0.11
UniProt O75330 and related entries	0.979 ± 0.019	0.983 ± 0.055
UniProt O95155 and related entries	1.01 ± 0.016	0.964 ± 0.029
E2F6 (UniProt O75461)	1.035 ± 0.01	0.976 ± 0.066
UniProt O94906 and related entries	1.06 ± 0.038	1.01 ± 0.061
TGDS (UniProt O95455)	0.997 ± 0.024	0.994 ± 0.033
UniProt O75081 and related entries	1 ± 0.013	1.01 ± 0.038
UniProt O94766 and related entries	1.01 ± 0.059	0.962 ± 0.05
UniProt O75093 and related entries	0.997 ± 0.024	0.981 ± 0.032

Target	NP40-soluble protein abundance (concentration: 0.1mM)	NP40-soluble protein abundance (concentration: 0.5mM)
ARL6IP5 (UniProt O75915)	0.971 ± 0.028	0.997 ± 0.0061
MOCS3 (UniProt O95396)	1.01 ± 0.034	1.02 ± 0.069
UniProt O95379-3|O95379-4	0.989 ± 0.058	0.976 ± 0.011
PFDN1 (UniProt O60925)	0.9933 ± 0.0021	1.02 ± 0.046
KIF4A (UniProt O95239)	0.9808 ± 0.0096	1.01 ± 0.045
UniProt O60293 and related entries	1.02 ± 0.058	1.02 ± 0.027
UniProt O60888 and related entries	1.03 ± 0.047	1.07 ± 0.046
UniProt O95394 and related entries	1.01 ± 0.046	0.984 ± 0.044
UniProt O94964 and related entries	0.983 ± 0.011	0.986 ± 0.026
FRYL (UniProt O94915)	0.988 ± 0.039	0.99 ± 0.043
PHF2 (UniProt O75151)	0.978 ± 0.015	0.992 ± 0.031
VPS26A (UniProt O75436)	1.04 ± 0.087	0.975 ± 0.18
UniProt O60506 and related entries	1 ± 0.023	0.985 ± 0.022
UniProt O75390 and related entries	1.11 ± 0.16	0.869 ± 0.24
RAB3D (UniProt O95716)	1.028 ± 0.0097	0.967 ± 0.057
WFS1 (UniProt O76024)	1.013 ± 0.0058	0.998 ± 0.031
CIAO1 (UniProt O76071)	1.02 ± 0.026	1.01 ± 0.083
UniProt O60341	1.006 ± 0.0044	0.989 ± 0.03
UniProt O60671 and related entries	1.01 ± 0.059	0.995 ± 0.057
UniProt O60271 and related entries	1 ± 0.021	1.02 ± 0.054
UniProt O75947	0.971 ± 0.021	1 ± 0.032
UniProt O60879-2|C9J6U3	0.988 ± 0.016	0.972 ± 0.018
ERLIN1 (UniProt O75477)	1.01 ± 0.061	1.02 ± 0.068
UniProt O94763	1 ± 0.044	1.05 ± 0.068
UniProt O75525 and related entries	1.02 ± 0.02	1.02 ± 0.022
UniProt O75326 and related entries	1.004 ± 0.0063	1.007 ± 0.0033

Target	NP40-soluble protein abundance (concentration: 0.1mM)	NP40-soluble protein abundance (concentration: 0.5mM)
UniProt O95243-2|O95243-5|O95243	0.985 ± 0.023	0.974 ± 0.026
UniProt O95466-2|O95466-3	1.006 ± 0.0066	1.02 ± 0.016
ZNF217 (UniProt O75362)	0.981 ± 0.039	1 ± 0.032
IPO7 (UniProt O95373)	1.02 ± 0.04	1.015 ± 0.0091
UniProt O95453 and related entries	1 ± 0.016	0.998 ± 0.023
UniProt O75400 and related entries	1.01 ± 0.028	1.04 ± 0.028
WDR1 (UniProt O75083)	1 ± 0.024	0.997 ± 0.046
UniProt O95235 and related entries	1.04 ± 0.038	1.01 ± 0.042
DOK2 (UniProt O60496)	0.9946 ± 0.0036	1.042 ± 0.01
UniProt O95475	1.01 ± 0.031	1.02 ± 0.042
UniProt O75530	1.02 ± 0.025	1.02 ± 0.045
SURF6 (UniProt O75683)	1.01 ± 0.036	1.04 ± 0.083
UniProt O60711 and related entries	0.9862 ± 0.0066	1 ± 0.048
SLC16A7 (UniProt O60669)	0.971 ± 0.028	0.981 ± 0.022
ERAL1 (UniProt O75616)	0.792 ± 0.037	0.802 ± 0.034
UniProt O60232	0.996 ± 0.032	1.01 ± 0.037
CTSV (UniProt O60911)	0.971 ± 0.04	1.02 ± 0.045
UniProt O75460	1.01 ± 0.024	1.04 ± 0.029
UniProt O94822 and related entries	1.01 ± 0.021	0.992 ± 0.04
BRD4 (UniProt O60885)	0.979 ± 0.027	0.999 ± 0.05
COQ9 (UniProt O75208)	0.96 ± 0.057	0.986 ± 0.07
NDUFS5 (UniProt O43920)	1.01 ± 0.029	1.05 ± 0.1
ACSL3 (UniProt O95573)	0.998 ± 0.057	1.01 ± 0.022
PGLS (UniProt O95336)	0.998 ± 0.041	1.02 ± 0.048
CCDC22 (UniProt O60826)	1.003 ± 0.0077	0.988 ± 0.053
UniProt O75558	0.983 ± 0.02	1.02 ± 0.018
